This data set is described as follows: general procedure: Boc solid-phase peptide synthesis; benzhydrylamine polystyrene resin; DIC/HOBT. Conditions: whole synthesis, HPLC μ Bondapak C18, triacetate.

Experimental findings from patent US4305852A (American Home Products Corporation, priority 1980, dated 1981) are described below.

Turning to “L-arginyl-L-lysyl-L-aspartyl-L-valyl-D-alaninamide triacetate”, the “final HPLC purity” value was determined as 98%.
